Test results from PMC7145659.

Protein sequences, listed by entry. Tags and fused reporters are not part of them.
UniProt P54578: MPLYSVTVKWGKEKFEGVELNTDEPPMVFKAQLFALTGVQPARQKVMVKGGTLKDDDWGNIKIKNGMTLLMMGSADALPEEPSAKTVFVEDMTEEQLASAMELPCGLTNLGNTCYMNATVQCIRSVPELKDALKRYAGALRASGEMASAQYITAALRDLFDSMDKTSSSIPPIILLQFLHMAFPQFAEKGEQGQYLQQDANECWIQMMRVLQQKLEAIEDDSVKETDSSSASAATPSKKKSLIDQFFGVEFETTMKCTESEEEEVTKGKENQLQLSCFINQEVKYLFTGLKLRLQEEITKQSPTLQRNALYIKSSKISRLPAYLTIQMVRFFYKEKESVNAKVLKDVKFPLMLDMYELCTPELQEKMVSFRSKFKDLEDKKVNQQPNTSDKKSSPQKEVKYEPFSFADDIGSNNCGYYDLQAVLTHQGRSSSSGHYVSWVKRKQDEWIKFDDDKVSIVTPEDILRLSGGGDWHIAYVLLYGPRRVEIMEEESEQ
UniProt P13010: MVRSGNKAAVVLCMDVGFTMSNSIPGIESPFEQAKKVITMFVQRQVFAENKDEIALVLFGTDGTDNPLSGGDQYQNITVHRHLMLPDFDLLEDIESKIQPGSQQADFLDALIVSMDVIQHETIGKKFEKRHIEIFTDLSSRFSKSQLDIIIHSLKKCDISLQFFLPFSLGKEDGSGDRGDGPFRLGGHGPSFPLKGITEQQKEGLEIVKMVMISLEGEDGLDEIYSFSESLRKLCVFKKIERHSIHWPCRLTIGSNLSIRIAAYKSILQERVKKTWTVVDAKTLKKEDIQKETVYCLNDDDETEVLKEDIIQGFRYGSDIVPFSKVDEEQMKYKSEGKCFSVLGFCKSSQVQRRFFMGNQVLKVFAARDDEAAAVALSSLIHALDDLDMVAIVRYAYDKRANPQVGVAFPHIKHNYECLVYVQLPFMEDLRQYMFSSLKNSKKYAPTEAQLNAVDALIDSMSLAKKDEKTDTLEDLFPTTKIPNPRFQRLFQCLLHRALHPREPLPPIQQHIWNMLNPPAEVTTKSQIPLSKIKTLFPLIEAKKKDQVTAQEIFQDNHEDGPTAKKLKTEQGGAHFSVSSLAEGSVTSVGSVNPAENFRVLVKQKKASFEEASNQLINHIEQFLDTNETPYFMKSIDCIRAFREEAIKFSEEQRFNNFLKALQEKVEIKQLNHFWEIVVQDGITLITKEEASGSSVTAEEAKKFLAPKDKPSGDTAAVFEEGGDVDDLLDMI
UniProt P12956: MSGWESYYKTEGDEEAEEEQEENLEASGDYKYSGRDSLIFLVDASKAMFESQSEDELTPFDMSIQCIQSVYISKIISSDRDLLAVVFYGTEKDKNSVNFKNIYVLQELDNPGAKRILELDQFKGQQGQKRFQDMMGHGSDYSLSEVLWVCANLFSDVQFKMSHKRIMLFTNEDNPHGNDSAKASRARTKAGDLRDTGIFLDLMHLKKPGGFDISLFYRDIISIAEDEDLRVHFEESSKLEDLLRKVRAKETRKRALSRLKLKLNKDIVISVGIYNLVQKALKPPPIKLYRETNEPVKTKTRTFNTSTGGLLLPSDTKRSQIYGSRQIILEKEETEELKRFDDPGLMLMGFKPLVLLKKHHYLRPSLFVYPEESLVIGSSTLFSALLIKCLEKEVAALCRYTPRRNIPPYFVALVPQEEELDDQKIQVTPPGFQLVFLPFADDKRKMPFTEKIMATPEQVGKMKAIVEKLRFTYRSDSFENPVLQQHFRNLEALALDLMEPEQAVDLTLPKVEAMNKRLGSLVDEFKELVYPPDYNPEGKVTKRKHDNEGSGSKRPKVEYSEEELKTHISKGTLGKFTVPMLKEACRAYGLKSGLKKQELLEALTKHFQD

Molecular target: Flag-HA-USP14 (expressed in C4-2 cells) (human) (UniProt P54578)
Test: affinity purification with mass spectrometry; Flag-HA-USP14 transiently expressed in C4-2 cells, immunoprecipitated with anti-Flag M2 magnetic beads, eluted with 3x Flag peptide, trypsin digest, LC-MS/MS; Mascot ion score >40

| Substance | binding |
| --- | --- |
| Ku80, endogenous (C4-2 cells) (from UniProt P13010 1-732) | binds |
| Ku70, endogenous (C4-2 cells) (from UniProt P12956 1-609) | binds |

No constants are given. Whether binding was seen depends on the method and setting. Binding seen in cells or lysates may run through a third protein. Here binding means that the protein was enriched with, or labelled near, the bait; the list need not be complete.
